Record: PubChem BioAssay AID504764 (Drosophila RNAi Screening Center, 2011)

Screen: 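Knock-downs that raise or lower a Notch target reporter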 (primary screen)
System: Drosophila Kc167 cells
Reagents: long dsRNA against Drosophila genes
Time to read-out: about 5 days (4 days dsRNA, then 24 h after transfection)
Treatment: transfection of constitutively active membrane-tethered Notch lacking the extracellular domain, read 24 h later
Measurement: 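Light from a Notch-responsive E(spl)m3 luciferase reporter under active Notch, with control-promoter and no-Notch reporter wells to normalise; raw counts from paired wells a and b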
Direction: induced reporter light, run 1, well a and induced reporter light, run 1, well b: higher = more light from the Notch target reporter with active Notch; control promoter light, run 1, well a and control promoter light, run 1, well b: higher = more light from the viral control promoter (cell number, transfection, viability); uninduced reporter light, run 1, well a: higher = more light from the Notch target reporter without active Notch
Active means: 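Wells with low control signal or poorly matching duplicates excluded; duplicates averaged; per source plate, z beyond ±2 for induced/control log2 ratio or beyond ±1.8 for induced/uninduced marks a hit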
Meaning of the calls: active = modifier hit (raised or lowered Notch signal); inactive = not a hit
The deposit covers about 22,000 reagents; shown is an unselected part of those with a known target gene and a result. Of all reagents, 403 (1.9%) got an active call. 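Unnormalised raw counts per well; ratio z-scores behind the hit calls and whether each hit raises or lowers signal are not deposited.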 Unmarked entries are inactive. Not given: the amount of reagent.

Knock-down of CG5886 (GeneID 43125) [DRSC15908] resulted in: induced reporter light, run 1, well a = 1.48e5; induced reporter light, run 1, well b = 1.60e5; control promoter light, run 1, well a = 2.29e5; control promoter light, run 1, well b = 2.46e5; uninduced reporter light, run 1, well a = 12370.
CG6805 (GeneID 36911) [DRSC07011] showed induced reporter light, run 1, well a = 1.18e5; induced reporter light, run 1, well b = 1.15e5; control promoter light, run 1, well a = 1.92e5; control promoter light, run 1, well b = 2.24e5; uninduced reporter light, run 1, well a = 8250.
With knock-down of CG43693 (GeneID 39231) [DRSC09086] the results were induced reporter light, run 1, well a = 1.42e5; induced reporter light, run 1, well b = 1.72e5; control promoter light, run 1, well a = 1.74e5; control promoter light, run 1, well b = 1.68e5; uninduced reporter light, run 1, well a = 12720.
CG43693 (GeneID 39231) [DRSC10625] gave induced reporter light, run 1, well a = 1.54e5; induced reporter light, run 1, well b = 1.19e5; control promoter light, run 1, well a = 93670; control promoter light, run 1, well b = 38645; uninduced reporter light, run 1, well a = 8580.
Depletion of dpr2 (GeneID 3346227) [DRSC02370] came out at: induced reporter light, run 1, well a = 1.04e5; induced reporter light, run 1, well b = 1.34e5; control promoter light, run 1, well a = 70300; control promoter light, run 1, well b = 75235; uninduced reporter light, run 1, well a = 15400.
dpr2 (GeneID 3346227) [DRSC02371] gave induced reporter light, run 1, well a = 1.40e5; induced reporter light, run 1, well b = 1.59e5; control promoter light, run 1, well a = 59835; control promoter light, run 1, well b = 1.01e5; uninduced reporter light, run 1, well a = 19415.
For CG14300 (GeneID 3346166) [DRSC14779], the values are induced reporter light, run 1, well a = 1.95e5; induced reporter light, run 1, well b = 1.80e5; control promoter light, run 1, well a = 1.61e5; control promoter light, run 1, well b = 1.56e5; uninduced reporter light, run 1, well a = 12265.
After knock-down of CG9630 (GeneID 40974) [DRSC16527], the record shows induced reporter light, run 1, well a = 1.22e5; induced reporter light, run 1, well b = 1.11e5; control promoter light, run 1, well a = 81800; control promoter light, run 1, well b = 70030; uninduced reporter light, run 1, well a = 9305.
Against CG34354 (GeneID 5740528) [DRSC13863], the values are induced reporter light, run 1, well a = 2.24e5; induced reporter light, run 1, well b = 2.20e5; control promoter light, run 1, well a = 2.19e5; control promoter light, run 1, well b = 2.43e5; uninduced reporter light, run 1, well a = 19080.
Depletion of CG34354 (GeneID 5740528) [DRSC14515] came out at: induced reporter light, run 1, well a = 5765; induced reporter light, run 1, well b = 5505; control promoter light, run 1, well a = 12965; control promoter light, run 1, well b = 12445; uninduced reporter light, run 1, well a = 2310.
After knock-down of CG34354 (GeneID 5740528) [DRSC14558] the results were induced reporter light, run 1, well a = 4782; induced reporter light, run 1, well b = 5055; control promoter light, run 1, well a = 9305; control promoter light, run 1, well b = 9810; uninduced reporter light, run 1, well a = 2175.
For CG34354 (GeneID 5740528) [DRSC15645], the values are induced reporter light, run 1, well a = 1.46e5; induced reporter light, run 1, well b = 1.29e5; control promoter light, run 1, well a = 1.78e5; control promoter light, run 1, well b = 1.42e5; uninduced reporter light, run 1, well a = 11020.

Copied from the entries so far for reference:
dpr2 (GeneID 3346227) [DRSC02371] → induced reporter light, run 1, well a: 1.40e5; induced reporter light, run 1, well b: 1.59e5; control promoter light, run 1, well a: 59835; control promoter light, run 1, well b: 1.01e5; uninduced reporter light, run 1, well a: 19415
CG14300 (GeneID 3346166) [DRSC14779] → induced reporter light, run 1, well a: 1.95e5; induced reporter light, run 1, well b: 1.80e5; control promoter light, run 1, well a: 1.61e5; control promoter light, run 1, well b: 1.56e5; uninduced reporter light, run 1, well a: 12265
